At least one compound was matched to its structure with a doubt left.
Experiments:
Type in all cases: cell-based
Escherichia coli = assay: Antimicrobial screening by agar dilution, E. coli
Method: (§1) The antibacterial properties of the synthesized compound 9-(2-hydroxypyridin-3-yl)-10-[3-(dimethylamino)propyl]-3,4,6,7,9,10-hexahydroacridine-1,8(2H,5H)-dione were studied by the method of agar dilution. Test solutions of each compound was prepared in concentration of 1% using dimethylformamide as a solvent then they are diluted in physiological solution to obtain the final experimental dilutions 1:100, 1:200, 1:400, 1:800. The effect of these substances are compared with furacillin in a controllable study. The testing microbes used were gram positive bacteria Staphylococcus aureus, gram negative bacteria Pseudomonas aeruginosa and Escherichia coli and Candida albicans fungus. The experiments used for this survey were meat-pentonlu agar (EPA) for cultivation of bacteria and Saburo environment for the fungus. Each experiment used 1 mL of test solution on each plate […]. Two drops of emulsified with microbes feel were added. All experimental samples were taken from the agar after 10, 20, 40, 60 minutes in the environment on the basis of Patrk planted. The bacteria were cultivated at a temperature of 37° C. for 1 day and the mushroom was kept in a thermostat for […] at a temperature of 28° C. Then results were checked.

Staphylococcus aureus = assay: Antimicrobial screening by agar dilution, St. aureus; settings: St. Aereus
Method: as §1

Pseudomonas aeruginosa = assay: Antimicrobial screening by agar dilution, Ps. aeruginosa
Method: as §1

Candida albicans = assay: Antimicrobial (antifungal) screening by agar dilution, Candida albicans
Method: as §1

[1] = exposure time 10 min, dilution 1:100
[2] = exposure time 10 min, dilution 1:200
[3] = exposure time 10 min, dilution 1:400
[4] = exposure time 10 min, dilution 1:800
[5] = exposure time 20 min, dilution 1:100
[6] = exposure time 20 min, dilution 1:200
[7] = exposure time 20 min, dilution 1:400
[8] = exposure time 20 min, dilution 1:800
[9] = exposure time 40 min, dilution 1:100
[10] = exposure time 40 min, dilution 1:200
[11] = exposure time 40 min, dilution 1:400
[12] = exposure time 40 min, dilution 1:800
[13] = exposure time 60 min, dilution 1:100
[14] = exposure time 60 min, dilution 1:200
[15] = exposure time 60 min, dilution 1:400
[16] = exposure time 60 min, dilution 1:800

NC(=O)N/N=C/c1ccc([N+](=O)[O-])o1 [Furacilin]
antimicrobial activity (+/−) (Escherichia coli; [1]): −
antimicrobial activity (+/−) (Escherichia coli; [2]): +
antimicrobial activity (+/−) (Escherichia coli; [3]): +
antimicrobial activity (+/−) (Escherichia coli; [4]): +
antimicrobial activity (+/−) (Escherichia coli; [5]): −
antimicrobial activity (+/−) (Escherichia coli; [6]): +
antimicrobial activity (+/−) (Escherichia coli; [7]): +
antimicrobial activity (+/−) (Escherichia coli; [8]): +
antimicrobial activity (+/−) (Escherichia coli; [9]): −
antimicrobial activity (+/−) (Escherichia coli; [10]): +
antimicrobial activity (+/−) (Escherichia coli; [11]): +
antimicrobial activity (+/−) (Escherichia coli; [12]): +
antimicrobial activity (+/−) (Escherichia coli; [13]): −
antimicrobial activity (+/−) (Escherichia coli; [14]): +
antimicrobial activity (+/−) (Escherichia coli; [15]): +
antimicrobial activity (+/−) (Escherichia coli; [16]): +
antimicrobial activity (+/−) (Staphylococcus aureus; [1]): −
antimicrobial activity (+/−) (Staphylococcus aureus; [2]): +
antimicrobial activity (+/−) (Staphylococcus aureus; [3]): +
antimicrobial activity (+/−) (Staphylococcus aureus; [4]): +
antimicrobial activity (+/−) (Staphylococcus aureus; [5]): −
antimicrobial activity (+/−) (Staphylococcus aureus; [6]): +
antimicrobial activity (+/−) (Staphylococcus aureus; [7]): +
antimicrobial activity (+/−) (Staphylococcus aureus; [8]): +
antimicrobial activity (+/−) (Staphylococcus aureus; [9]): −
antimicrobial activity (+/−) (Staphylococcus aureus; [10]): +
antimicrobial activity (+/−) (Staphylococcus aureus; [11]): +
antimicrobial activity (+/−) (Staphylococcus aureus; [12]): +
antimicrobial activity (+/−) (Staphylococcus aureus; [13]): −
antimicrobial activity (+/−) (Staphylococcus aureus; [14]): +
antimicrobial activity (+/−) (Staphylococcus aureus; [15]): +
antimicrobial activity (+/−) (Staphylococcus aureus; [16]): +
antimicrobial activity (+/−) (Pseudomonas aeruginosa; [1]): +
antimicrobial activity (+/−) (Pseudomonas aeruginosa; [2]): +
antimicrobial activity (+/−) (Pseudomonas aeruginosa; [3]): +
antimicrobial activity (+/−) (Pseudomonas aeruginosa; [4]): +
antimicrobial activity (+/−) (Pseudomonas aeruginosa; [5]): +
antimicrobial activity (+/−) (Pseudomonas aeruginosa; [6]): +
antimicrobial activity (+/−) (Pseudomonas aeruginosa; [7]): +
antimicrobial activity (+/−) (Pseudomonas aeruginosa; [8]): +
antimicrobial activity (+/−) (Pseudomonas aeruginosa; [9]): +
antimicrobial activity (+/−) (Pseudomonas aeruginosa; [10]): +
antimicrobial activity (+/−) (Pseudomonas aeruginosa; [11]): +
antimicrobial activity (+/−) (Pseudomonas aeruginosa; [12]): +
antimicrobial activity (+/−) (Pseudomonas aeruginosa; [13]): +
antimicrobial activity (+/−) (Pseudomonas aeruginosa; [14]): +
antimicrobial activity (+/−) (Pseudomonas aeruginosa; [15]): +
antimicrobial activity (+/−) (Pseudomonas aeruginosa; [16]): +
antimicrobial activity (+/−) (Candida albicans; [1]): −
antimicrobial activity (+/−) (Candida albicans; [2]): +
antimicrobial activity (+/−) (Candida albicans; [3]): +
antimicrobial activity (+/−) (Candida albicans; [4]): +
antimicrobial activity (+/−) (Candida albicans; [5]): −
antimicrobial activity (+/−) (Candida albicans; [6]): +
antimicrobial activity (+/−) (Candida albicans; [7]): +
antimicrobial activity (+/−) (Candida albicans; [8]): +
antimicrobial activity (+/−) (Candida albicans; [9]): +
antimicrobial activity (+/−) (Candida albicans; [10]): +
antimicrobial activity (+/−) (Candida albicans; [11]): +
antimicrobial activity (+/−) (Candida albicans; [12]): +
antimicrobial activity (+/−) (Candida albicans; [13]): +
antimicrobial activity (+/−) (Candida albicans; [14]): +
antimicrobial activity (+/−) (Candida albicans; [15]): +
antimicrobial activity (+/−) (Candida albicans; [16]): +

— patent US11945793B1, “9-(2-hydroxypyridin-3-yl)-10[3-(dimethylamino)propyl]-3,4,6,7,9,10-hexahydroacridine-1,8(2H,5H)-dione as an antimicrobial compound” (KING FAISAL UNIVERSITY, priority 2023, dated 2024)
